The match of structure and compound is tentative.
Target: human CXCR3 (N-delta 4) (Homo sapiens, UniProt P49682)
Assay: Human CXCR3 (N-delta 4) Scintillation Proximity Assay (SPA), [125I] IP-10 binding
Settings: IC50 ratings; Ba/F3-hCXCR3 (N-delta 4) membranes, 25 pM [125I] IP-10
Source text: The inventive compounds can readily be evaluated to determine activity at the CXCR3 receptors by known methods, such as, for example, development of a human CXCR3 (N-delta 4) Binding Assay.
Cloning and Expression of Human CXCR3 (N-delta 4):
The DNA encoding human CXCR3 was cloned by PCR using human genomic DNA (Promega, Madison, Wis.) as a template. The PCR primers were designed based on the published sequence of human orphan receptor GPR9 (1) with incorporated restriction sites, a Kozak consensus sequence, CD8 leader and Flag tag. […]
Ba/F3 cells expressing human CXCR3 (N-delta 4) were pelleted and resuspended in the lysis buffer containing 10 mM HEPES, pH 7.5 and Complete® protease inhibitors (1 tablet per 100 ml) (Boehringer Mannheim, Indianapolis, Ind.) at a cell density of 20×10^6 cells per ml. […] Total protein concentration of the membrane was determined by BCA method from Pierce (Rockford, Ill.). […]
For each assay point, 2 μg of membrane was preincubated for 1 hr with 300 μg wheat germ agglutinin (WGA) coated SPA beads (Amersham, Arlington Heights, Ill.) in the binding buffer (50 mM HEPES, 1 mM CaCl2, 5 mM MgCl2, 125 mM NaCl, 0.002% NaN3, 1.0% BSA) at room temperature. […] IP10 bound to the SPA beads was determined with a Wallac 1450 Microbeta counter.

Chains of the proteins cited; added tags and fusions are not shown. Residues count along the entry.
UniProt P49682, 5-368 limits assumed: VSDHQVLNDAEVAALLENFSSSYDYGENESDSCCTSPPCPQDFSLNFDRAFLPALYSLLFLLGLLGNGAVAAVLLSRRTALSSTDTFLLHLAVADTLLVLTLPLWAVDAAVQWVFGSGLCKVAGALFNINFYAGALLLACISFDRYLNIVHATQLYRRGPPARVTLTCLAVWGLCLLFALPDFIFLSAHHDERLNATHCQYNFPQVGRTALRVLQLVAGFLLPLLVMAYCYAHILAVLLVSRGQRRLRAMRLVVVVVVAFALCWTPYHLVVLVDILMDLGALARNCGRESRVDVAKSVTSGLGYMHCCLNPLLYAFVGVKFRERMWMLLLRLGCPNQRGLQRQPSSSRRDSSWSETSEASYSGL

IC50: < 25 nM
Compound: CC[C@H]1CN(c2nc3[nH]c(=O)[nH]c3nc2Cl)CCN1C1CCN([C@@H](C(=O)OC)c2ccc(Cl)cc2)CC1

— patent US7763616B2, “Piperazine-piperidines with CXCR3 antagonist activity” (Schering Corporation, priority 2005, dated 2010)
